Data as given in PubChem BioAssay AID1508587 (Peter MacCallum Cancer Centre, 2020).

- Assay: 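Follow-up of vemurafenib sensitisers scored by lactate made per cell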 (follow-up of hits)
- System: human WM266.4 melanoma cells with a BRAF V600 mutation
- Knock-down reagent: single siRNA against human genes, 25 nM
- Duration: 96 h
- Conditions: vemurafenib 300 nM (about IC25), given 48 h after transfection for 48 h
- Read-out: 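Per-cell lactate from absorbance divided by DAPI nucleus counts, compared with and without vemurafenib, relative to non-targeting siRNA, mean of 2 replicates; nuclear counts also give cell number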
- Direction: lactate per cell, drug vs no drug: higher = less drug-induced drop in lactate per cell
- Active means: 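a duplex is active when its lactate-per-cell ratio with versus without drug falls under 0.55, i.e. 2 SD below non-targeting; a gene is confirmed if 2 or more of 4 duplexes pass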
Here is a random part of about 1,600 reagents tested. Over the whole deposit, 623 (39%) are marked active. 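Calls are for each duplex; lactate ratios contain extreme outliers.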 Unmarked entries are inactive. The numbers tell different reagents against one gene apart. Further read-outs or replicates are left out here.

no.	gene symbol	reagent no.	lactate per cell, drug vs no drug
1	GARIN4 (golgi associated RAB2 interactor family member 4)	1	0.55
2	GARIN4 (golgi associated RAB2 interactor family member 4)	2	0.55
3	GARIN4 (golgi associated RAB2 interactor family member 4)	3	0.55
4	GARIN4 (golgi associated RAB2 interactor family member 4)	4	0.96
5	AK4 (adenylate kinase 4)	1	0.4 (active)
6	AK4 (adenylate kinase 4)	2	0.56
7	AK4 (adenylate kinase 4)	3	0.53 (active)
8	AK4 (adenylate kinase 4)	4	0.54 (active)
9	HIVEP2 (HIVEP zinc finger 2)	1	0.52 (active)
10	HIVEP2 (HIVEP zinc finger 2)	2	0.44 (active)
11	HIVEP2 (HIVEP zinc finger 2)	3	0.48 (active)
12	HIVEP2 (HIVEP zinc finger 2)	4	0.6

Reprinted from the entries so far (2 entries):
no.	gene symbol	reagent no.	lactate per cell, drug vs no drug
4	GARIN4 (golgi associated RAB2 interactor family member 4)	4	0.96
5	AK4 (adenylate kinase 4)	1	0.4 (active)

The results go on.
no.	gene symbol	reagent no.	lactate per cell, drug vs no drug
13	FOLH1 (folate hydrolase 1)	1	0.58
14	FOLH1 (folate hydrolase 1)	2	0.4 (active)
15	FOLH1 (folate hydrolase 1)	3	0.52 (active)
16	FOLH1 (folate hydrolase 1)	4	0.68
17	OR1F1 (olfactory receptor family 1 subfamily F member 1)	1	0.42 (active)
18	OR1F1 (olfactory receptor family 1 subfamily F member 1)	2	1.25
19	OR1F1 (olfactory receptor family 1 subfamily F member 1)	3	0.6
20	OR1F1 (olfactory receptor family 1 subfamily F member 1)	4	0.7
21	HECTD2 (HECT domain E3 ubiquitin protein ligase 2)	1	0.5 (active)
22	HECTD2 (HECT domain E3 ubiquitin protein ligase 2)	2	0.48 (active)
23	HECTD2 (HECT domain E3 ubiquitin protein ligase 2)	3	0.52 (active)
24	HECTD2 (HECT domain E3 ubiquitin protein ligase 2)	4	0.55
25	LYRM2 (LYR motif containing 2)	1	0.66
26	LYRM2 (LYR motif containing 2)	2	0.38 (active)
27	LYRM2 (LYR motif containing 2)	3	0.51 (active)
28	LYRM2 (LYR motif containing 2)	4	0.7
29	CCAR1 (cell division cycle and apoptosis regulator 1)	1	0.64
30	CCAR1 (cell division cycle and apoptosis regulator 1)	2	0.51 (active)
31	CCAR1 (cell division cycle and apoptosis regulator 1)	3	0.52 (active)
32	CCAR1 (cell division cycle and apoptosis regulator 1)	4	0.56
33	WFDC13 (WAP four-disulfide core domain 13)	1	0.58
34	WFDC13 (WAP four-disulfide core domain 13)	2	0.56
35	WFDC13 (WAP four-disulfide core domain 13)	3	0.83
36	WFDC13 (WAP four-disulfide core domain 13)	4	0.63
